Record: PubChem BioAssay AID686938 (Drosophila RNAi Screening Center, 2013)

Screen: 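Fly genes required for calcium entry once internal stores are emptied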 (primary screen)
System: Drosophila S2R+ cells
Reagents: long dsRNA against Drosophila genes, about 0.25 µg dsRNA per well, roughly 10,000 cells
Timing: 5 days of knock-down before the calcium assay
Challenge: thapsigargin (SERCA pump blocker) to empty calcium stores; entry signal taken 4 min after adding it
Detection: 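Per-well fluo-4 fluorescence in two replicates, unnormalised, measured in resting cells and 4 min after store depletion by the SERCA blocker thapsigargin; ratio of the two present in few wells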
Reading the numbers: calcium entry signal: higher = stronger calcium signal after store depletion; resting calcium signal: higher = higher resting calcium signal
Rule for the call: 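Called when the plate z-score of the entry-to-rest ratio, mean of duplicates, falls below −3; wells with low overall dye signal (Fmax z below −2) or more than five off-targets excluded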
Calls: active = strongly reduced calcium entry; inactive = no strong reduction
In all, the deposit lists about 23,000 reagents; shown is an unselected part of those that have a named target and a result. In the full data, 75 (0.33%) got an active call. 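Raw plate signals without normalisation; calls rest on plate z-scores that were not deposited; ratio present for only 364 wells.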 The record does not give: the dose of the treatment.

How did the screen score CG42720 (retired record) [DRSC22549]?
calcium entry signal, replicate 1 (fluorescence units): 3.49e7; calcium entry signal, replicate 2 (fluorescence units): 3.50e7; resting calcium signal, replicate 1 (fluorescence units): 1.76e7; resting calcium signal, replicate 2 (fluorescence units): 1.54e7; activity call: inactive

For Cpsf100 (Cleavage and polyadenylation specificity factor 100) [DRSC14146], what does the deposit list?
calcium entry signal, replicate 1 (fluorescence units): 2.54e7; calcium entry signal, replicate 2 (fluorescence units): 2.44e7; resting calcium signal, replicate 1 (fluorescence units): 1.27e7; resting calcium signal, replicate 2 (fluorescence units): 1.22e7; activity call: inactive

Which result is listed for cmb (combover) [DRSC09790]?
calcium entry signal, replicate 1 (fluorescence units): 2.89e7; calcium entry signal, replicate 2 (fluorescence units): 3.45e7; resting calcium signal, replicate 1 (fluorescence units): 1.56e7; resting calcium signal, replicate 2 (fluorescence units): 1.67e7; activity call: inactive

What did the screen give for CG17612 [DRSC00505]?
calcium entry signal, replicate 1 (fluorescence units): 4.38e7; resting calcium signal, replicate 1 (fluorescence units): 2.56e7; activity call: inactive

How did the screen score CG30114 [DRSC05707]?
calcium entry signal, replicate 1 (fluorescence units): 2.40e7; calcium entry signal, replicate 2 (fluorescence units): 4.58e7; resting calcium signal, replicate 1 (fluorescence units): 1.18e7; resting calcium signal, replicate 2 (fluorescence units): 2.20e7; activity call: inactive

With CG30094 [DRSC22268], what does the deposit list?
calcium entry signal, replicate 1 (fluorescence units): 2.77e7; calcium entry signal, replicate 2 (fluorescence units): 3.24e7; resting calcium signal, replicate 1 (fluorescence units): 1.40e7; resting calcium signal, replicate 2 (fluorescence units): 1.64e7; activity call: inactive

Which result is listed for CG13634 [DRSC14635]?
calcium entry signal, replicate 1 (fluorescence units): 3.52e7; calcium entry signal, replicate 2 (fluorescence units): 4.12e7; resting calcium signal, replicate 1 (fluorescence units): 1.60e7; resting calcium signal, replicate 2 (fluorescence units): 1.69e7; activity call: inactive

Which result is listed for CG15919 [DRSC06594]?
calcium entry signal, replicate 1 (fluorescence units): 4.44e7; calcium entry signal, replicate 2 (fluorescence units): 3.45e7; resting calcium signal, replicate 1 (fluorescence units): 2.57e7; resting calcium signal, replicate 2 (fluorescence units): 1.75e7; activity call: inactive

For Cluap1 (Clusterin associated protein 1) [DRSC20637], what was measured?
calcium entry signal, replicate 1 (fluorescence units): 5.20e7; calcium entry signal, replicate 2 (fluorescence units): 3.51e7; resting calcium signal, replicate 1 (fluorescence units): 2.41e7; resting calcium signal, replicate 2 (fluorescence units): 1.77e7; activity call: inactive

How did the screen score Slh (SLY-1 homologous) [DRSC00407]?
calcium entry signal, replicate 1 (fluorescence units): 3.42e7; calcium entry signal, replicate 2 (fluorescence units): 4.12e7; resting calcium signal, replicate 1 (fluorescence units): 1.67e7; resting calcium signal, replicate 2 (fluorescence units): 1.78e7; activity call: inactive

Which result is listed for Slh (SLY-1 homologous) [DRSC00789]?
calcium entry signal, replicate 1 (fluorescence units): 2.38e7; calcium entry signal, replicate 2 (fluorescence units): 3.02e7; resting calcium signal, replicate 1 (fluorescence units): 1.58e7; resting calcium signal, replicate 2 (fluorescence units): 1.53e7; activity call: inactive

How did the screen score EDTP (Egg-derived tyrosine phosphatase) [DRSC07409]?
calcium entry signal, replicate 1 (fluorescence units): 4.07e7; calcium entry signal, replicate 2 (fluorescence units): 4.77e7; resting calcium signal, replicate 1 (fluorescence units): 1.75e7; resting calcium signal, replicate 2 (fluorescence units): 2.09e7; activity call: inactive

What did the screen give for BomBc2 (Bomanin Bicipital 2) [DRSC06502]?
calcium entry signal, replicate 1 (fluorescence units): 4.93e7; calcium entry signal, replicate 2 (fluorescence units): 5.28e7; resting calcium signal, replicate 1 (fluorescence units): 2.08e7; resting calcium signal, replicate 2 (fluorescence units): 2.36e7; activity call: inactive

How did the screen score CG14605 [DRSC12549]?
calcium entry signal, replicate 1 (fluorescence units): 5.04e7; calcium entry signal, replicate 2 (fluorescence units): 3.81e7; resting calcium signal, replicate 1 (fluorescence units): 2.44e7; resting calcium signal, replicate 2 (fluorescence units): 1.77e7; activity call: inactive

3 consecutive reagents already listed, for reference:
Slh (SLY-1 homologous) [DRSC00789] → calcium entry signal, replicate 1 (fluorescence units): 2.38e7; calcium entry signal, replicate 2 (fluorescence units): 3.02e7; resting calcium signal, replicate 1 (fluorescence units): 1.58e7; resting calcium signal, replicate 2 (fluorescence units): 1.53e7; activity call: inactive
EDTP (Egg-derived tyrosine phosphatase) [DRSC07409] → calcium entry signal, replicate 1 (fluorescence units): 4.07e7; calcium entry signal, replicate 2 (fluorescence units): 4.77e7; resting calcium signal, replicate 1 (fluorescence units): 1.75e7; resting calcium signal, replicate 2 (fluorescence units): 2.09e7; activity call: inactive
BomBc2 (Bomanin Bicipital 2) [DRSC06502] → calcium entry signal, replicate 1 (fluorescence units): 4.93e7; calcium entry signal, replicate 2 (fluorescence units): 5.28e7; resting calcium signal, replicate 1 (fluorescence units): 2.08e7; resting calcium signal, replicate 2 (fluorescence units): 2.36e7; activity call: inactive

Further results follow.
For Adgf-B (Adenosine deaminase-related growth factor B) [DRSC10568], how do the results read?
calcium entry signal, replicate 1 (fluorescence units): 5.82e7; calcium entry signal, replicate 2 (fluorescence units): 6.49e7; resting calcium signal, replicate 1 (fluorescence units): 2.48e7; resting calcium signal, replicate 2 (fluorescence units): 2.52e7; activity call: inactive

What did the screen give for ko (knockout) [DRSC11893]?
calcium entry signal, replicate 1 (fluorescence units): 3.43e7; calcium entry signal, replicate 2 (fluorescence units): 5.00e7; resting calcium signal, replicate 1 (fluorescence units): 1.67e7; resting calcium signal, replicate 2 (fluorescence units): 2.26e7; activity call: inactive

What did the screen give for Snx21 (Sorting nexin 21) [DRSC00564]?
calcium entry signal, replicate 1 (fluorescence units): 4.53e7; resting calcium signal, replicate 1 (fluorescence units): 2.00e7; activity call: inactive

With lncRNA:iab8 (long non-coding RNA:iab8) [DRSC13187], what was measured?
calcium entry signal, replicate 1 (fluorescence units): 3.07e7; calcium entry signal, replicate 2 (fluorescence units): 3.59e7; resting calcium signal, replicate 1 (fluorescence units): 2.06e7; resting calcium signal, replicate 2 (fluorescence units): 1.98e7; activity call: inactive

How did the screen score lncRNA:iab8 (long non-coding RNA:iab8) [DRSC22252]?
calcium entry signal, replicate 1 (fluorescence units): 2.00e7; calcium entry signal, replicate 2 (fluorescence units): 5.11e7; resting calcium signal, replicate 1 (fluorescence units): 1.04e7; resting calcium signal, replicate 2 (fluorescence units): 2.39e7; activity call: inactive

How did the screen score Rm62 [DRSC12365]?
calcium entry signal, replicate 1 (fluorescence units): 3.64e7; calcium entry signal, replicate 2 (fluorescence units): 4.68e7; resting calcium signal, replicate 1 (fluorescence units): 1.73e7; resting calcium signal, replicate 2 (fluorescence units): 2.20e7; activity call: inactive

What did the screen give for lncRNA:CR32658 (long non-coding RNA:CR32658) [DRSC19402]?
calcium entry signal, replicate 1 (fluorescence units): 3.32e7; calcium entry signal, replicate 2 (fluorescence units): 4.94e7; resting calcium signal, replicate 1 (fluorescence units): 1.63e7; resting calcium signal, replicate 2 (fluorescence units): 2.23e7; activity call: inactive
